Experimental data published in PubChem BioAssay AID624415 (National Center for Advancing Translational Sciences (NCATS), 2012).
Screen size: about 390,000 compounds; about 60 (0.02%) were called active. The shares of active, inactive and inconclusive entries below differ from those in the screen. No stated cut-off is given here; in the data, active means activity change below about -50%; inconclusive means between about -30% and that limit; inactive means weaker than that.

By UniProt entry, the sequences of proteins in these tests, tags left out.
UniProt Q9GZU1, whole entry, looked up: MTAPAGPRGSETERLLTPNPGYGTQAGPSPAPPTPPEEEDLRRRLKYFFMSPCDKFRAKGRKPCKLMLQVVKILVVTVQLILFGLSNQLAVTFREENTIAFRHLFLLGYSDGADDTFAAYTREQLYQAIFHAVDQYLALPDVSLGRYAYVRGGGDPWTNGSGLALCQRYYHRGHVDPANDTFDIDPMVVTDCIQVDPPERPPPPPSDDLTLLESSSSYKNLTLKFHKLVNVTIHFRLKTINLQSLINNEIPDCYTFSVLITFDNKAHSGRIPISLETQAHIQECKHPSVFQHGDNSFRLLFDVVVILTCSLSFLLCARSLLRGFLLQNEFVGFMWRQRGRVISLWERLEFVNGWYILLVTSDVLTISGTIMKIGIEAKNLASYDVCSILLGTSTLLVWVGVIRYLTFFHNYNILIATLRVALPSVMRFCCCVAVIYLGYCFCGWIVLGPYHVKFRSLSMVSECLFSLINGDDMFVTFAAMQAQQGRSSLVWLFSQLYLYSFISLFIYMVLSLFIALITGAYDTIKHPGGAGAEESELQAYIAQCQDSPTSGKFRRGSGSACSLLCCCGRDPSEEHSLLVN

Each molecule was assayed against Mucolipin-1 (Homo sapiens) (UniProt Q9GZU1) (assay: qHTS for Inhibitors of the Human Mucolipin Transient Receptor Potential 1 (TRPML1)). Details: TRPML1-inducible cells, Ca2+ dye fluorescence, FDSS; active compounds read low; inhibition of EC80 agonist-evoked calcium signal.
Excerpt: Mutations of human Mucolipin transient receptor potential 1 (TRPML1) cause type IV mucolipidosis (ML4), a devastating neurodegenerative disease in young children. […] Currently, there is no treatment for ML4. […] Under physiological conditions, TRPMLs regulate membrane trafficking by transducing information about PI(3,5)P2 levels into changes in juxtaorganellar Ca2+, thereby triggering membrane fusion/fission events in the late endocytic pathways (endolysosomal trafficking). In addition, TRPML1 mediates release of Fe2+ from late endosomes and lysosomes, which is essential for cellular iron metabolism. Thus, impaired ion (Ca2+ and Fe2+) homeostasis underlies lysosomal dysfunction and ML4 phenotypes. In ML4 cells, the problem is twofold. First, defective Ca2+-dependent membrane trafficking due to TRPML1-deficiency causes accumulation of lipids and other bio-materials in the lysosome. The second strike comes from the lysosomal iron overload (due to impairment of TRPML1's Fe2+ conductivity), which converts the accumulated materials into the nondegradable (resistant to lysosomal degradation) lipofuscin (also called aging pigment) in the lysosome. Lipofuscin accumulation dramatically compromises the functions of lysosomes.
Niemann-Pick type C (NPC) disease is another lysosome storage disease (LSD) with severe neurodegeneration during the childhood. Currently, there is no cure for NPC. […] Thus, TRPML1 is likely to be an essential regulator of lysosome ion homeostasis. We specifically hypothesize that stimulating TRPML1's Fe2+/Ca2+ channel activity in the lysosome using synthetic agonists can alleviate neurodegeneration associated with ML4 or NPC.
To this end, a high throughput screen was developed in a miniaturized format to screen against the Molecular Libraries Small Molecule Repository (MLSMR) to find small molecules that act either as inhibitors or agonist against the TRPML1 channel.
NIH Chemical Genomics Center [NCGC]
NIH Molecular Libraries Probe Centers Network [MLPCN]
Assay Submitter (PI): Haoxing Xu, University of Michigan Ann Arbor
TRPML1-DL cells are dissociated from flasks, counted and, brought up to a density of 500,000 cells per mL of media containing a 1X Tet inducer. Using a Multidrop Combi, 3 uL of this cell solution is dispensed to each well of a 1536 TC treated, black, clear bottom hi base plate for a final cell density of 1,500 cells per well. The assay plates are incubated overnight (approximately 16 hours) at 37 degrees C and 5% CO2. Using a Multidrop Combi, 2 uL of ABD Ca8 no wash dye plus quencher is added to each well. The assay plates incubate at room temperature in the dark for 45-90 minutes. The assay plate is read on the FDSS using the following protocol: 10 second baseline read, 23 nL of compounds and controls are added using 1536 pintool, agonist read for 110 seconds, 1 uL EC80 addition (4 uM final 54-4 diluted in media), antagonist read for 110 seconds.
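Further: stimulus is agonist 54-4 at its EC80 concentration.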
On the % scale 0 is the no-effect control and ±100 the full control effect.

Row | Structure (SMILES) | activity change, negative = inhibition
1 | O=S(=O)(/N=C(\c1ccccc1F)N1CCCCC1)c1ccccc1 | inconclusive: -32.6%
2 | O=C(COc1cc2oc(=O)c3c(c2cc1Cl)CCC3)NCc1ccncc1 | inactive: 2.08%
3 | COc1ccc(OC)c(C2CC(=O)Nc3c2c(=O)[nH]c2ncnn32)c1 (centres undefined) | inconclusive: -30.1%
4 | Cc1cccc(C)c1-n1c(C)cc(/C=N\NC(=O)CC(=O)NC2CCCCC2)c1C | inconclusive: -33.3%
5 | Cc1ccc2ccc3ccc(C)nc3c2n1 | inactive: 0.638%
6 | COC(=O)c1scc(-c2ccc(C)cc2)c1S(=O)(=O)Nc1cc(Cl)c(OC)cc1OC | inactive: 37.6%
7 | CCOC(=O)c1noc2nc(C)n(CC(=O)NC(C)CC)c(=O)c12 (centres undefined) | inconclusive: -46%
8 | CC(=O)c1cccc(NC(=O)CSc2nc(=O)n(Cc3ccco3)c3c2CCC3)c1 | inactive: -5.22%
9 | CCN(Cc1cccc(OC)c1)CC1CCCN(CCc2cccc(OC)c2)C1 (centres undefined) | inactive: 14.6%
10 | CN(C)c1ccc(/C=C/C(=O)c2c(O)c3ccccc3oc2=O)cc1 | inconclusive: -34.4%
11 | O=Cc1cccc(Oc2ncccn2)c1 | inconclusive: -30.2%
12 | O=S(=O)([N-]c1nc2ccccc2nc1-[n+]1ccc(-c2ccncc2)cc1)c1ccccc1 | inactive: 15.2%
13 | CCOc1ccc(C2c3cc(OC)c(OC)cc3CC(=O)N2c2ccccc2)cc1 (centres undefined) | active: -50.7%
14 | CCCCOC(=O)CSC(=S)N(C)Cc1cccs1 | inconclusive: -32.7%
15 | CC1(C)NC(=O)N(CCOc2cccc(Cl)c2Cl)C1=O | inconclusive: -37.3%
16 | CCCC(=O)Nc1ccc2c(c1)nc(CN1CCCC1)n2C | inconclusive: -30.3%
17 | CCOc1ccc(N(C)S(=O)(=O)c2ccc3[nH]cc(C(=O)NCc4ccccc4)c(=O)c3c2)cc1 | inconclusive: -32.7%
18 | CCOc1cc2[nH]c(=S)n(Cc3ccc(C(=O)NCCCOC)cc3)c(=O)c2cc1OCC | inconclusive: -33.1%
19 | Cc1nnc(N2CCC(C(=O)NC3CCCCC3)CC2)c2nn(-c3ccccc3)c(C)c12 | active: -58.2%
20 | O=C(NCCC1=CCCCC1)c1ccc2c(c1)N(Cc1cccc(Cl)c1)C(=O)c1ccccc1S2=O (centres undefined) | inactive: 6.95%
21 | N#Cc1c(-c2ccc3c(c2)OCO3)csc1N | inactive: 2.03%
22 | COC(=O)CNC(=O)c1ccc(NS(=O)(=O)c2cc([N+](=O)[O-])ccc2Cl)cc1 | inconclusive: -31.2%
23 | CCOc1cc(/C=N/O)ccc1OCc1ccccc1F | inconclusive: -32.4%

Row | Structure (SMILES) | activity change, negative = inhibition
24 | CCCCN(CC)CCCNC(=O)c1nn(C)c2c1CS(=O)(=O)c1ccccc1-2 | inconclusive: -30.4%
25 | COc1ccccc1C(=O)OCCN=C1NS(=O)(=O)c2ccccc21 | inconclusive: -30.7%
26 | CCn1c2ccccc2c2cc(CC(N)=O)ccc21 | inconclusive: -33.7%
27 | Cc1cccc(C)c1OCCNC(=O)OCc1ccccc1 | inconclusive: -31.2%
28 | COc1cccc(N2C(=NC(=O)C3CCCCC3)SC3CS(=O)(=O)CC32)c1 (centres undefined) | inconclusive: -30.6%
29 | COC(=O)c1ccc(NC(=S)NC2CCc3ccccc32)cc1 (centres undefined) | inactive: -16.7%
30 | O=C(CN1C(=O)COc2ccccc21)NCCCN1CCOCC1 | inactive: -9.01%
31 | O=C(Cn1nc(-c2ccccc2)c2cnc3ccccc3c21)Nc1ccccc1 | inconclusive: -30.3%
32 | Cc1c(/C=N/O)c2ccccn2c1C=O | inactive: 16.6%
33 | CCSc1ncc(Cl)c(C(=O)Nc2ccccc2C)n1 | inconclusive: -34.5%
34 | COc1ccc(N(C)S(=O)(=O)c2cccc(C(=O)NCC(c3ccco3)N3CCCC3)c2)cc1 (centres undefined) | inactive: 20.7%
35 | C/C(=N\N=C1\NC(=O)C(Cc2ccccc2)S1)c1ccccc1 (centres undefined) | inconclusive: -30.6%
36 | CCOc1ccc(CN2CCN(Cc3ccc4cc(F)ccc4n3)CC2CCO)cc1 (centres undefined) | inconclusive: -36.3%
37 | Cc1ccc(NC(=O)COC(=O)c2ccco2)cc1C | inconclusive: -34.7%
38 | CCCCc1nnc(NC(=O)CSCc2cc(=O)n3cc(C)sc3n2)s1 | inconclusive: -36.8%
39 | CCOc1ccc(CNC(=O)CCCC(=O)n2nc(C)c3ccccc32)cc1 | inconclusive: -40.5%
40 | O=C(Cn1cc(C(F)(F)F)ccc1=O)Nc1ccccc1 | inconclusive: -33.2%
41 | C[N+]1(CC(=O)OC2CCCCCCCCCCC2)CCCC1 | inconclusive: -35.8%
42 | O[C@@H]1CN(Cc2cccs2)[C@@H](c2ccc(Cl)cc2)C[C@H]1n1cc(-c2ccc(F)cc2)nn1 | inactive: 2.18%
43 | Cc1ccc(NC(=O)c2cccnc2C(=O)Nc2ccc(C)cc2)cc1 | inconclusive: -31.8%
44 | CC(NC(=O)C1CC1)C(c1cccs1)N1CCOCC1 (centres undefined) | inconclusive: -32.8%
45 | Cc1ccccc1OCCNc1cc(N2CC(C)NC(C)C2)ccc1[N+](=O)[O-] (centres undefined) | inactive: 1.1%
46 | COc1ccc2ccc(OCC(=O)N3c4ccccc4NC(=O)CC3C)cc2c1 (centres undefined) | inconclusive: -41.3%

Row | Structure (SMILES) | activity change, negative = inhibition
47 | CC(O)CNCc1cccc2ccccc12 (centres undefined) | inconclusive: -30.5%
48 | CCC1=C(c2ccc(C)cc2)S(=O)(=O)N=C1N1CCC(C(=O)N2CCCCC2)CC1 | inconclusive: -45.5%
49 | Cc1cccc(OC(=O)Nc2ccc(C(=O)O)c(O)c2)c1 | inconclusive: -36%
50 | O=C(O)c1cccc2c1Cc1cc([N+](=O)[O-])ccc1-2 | inconclusive: -37.6%
51 | Cc1ccc2c(CC(=O)OCC(=O)N(CC(C)C)c3c(N)n(Cc4ccccc4)c(=O)[nH]c3=O)coc2c1 | inactive: -13.8%
52 | Cc1cc2c(cc1S(=O)(=O)Nc1cccc(C)c1C)OCC(=O)N2 | inactive: -0.756%
53 | CC(C)c1nc(SCC(=O)Nc2ccc(N(C)C)cc2)c2ccccc2n1 | inconclusive: -33%
54 | Cc1nc2sc(C(c3ccc(Cl)cc3)N3CCOCC3)c(O)n2n1 (centres undefined) | inconclusive: -32.1%
55 | C=CCOc1ccccc1NC(=O)CN1C(=O)CNC1=O | inconclusive: -30.6%
56 | Cc1nc(Nc2ccc(Cl)cc2)c(C#N)c(=O)[nH]1 | inconclusive: -34.5%
57 | COc1ccc(Cl)cc1S(=O)(=O)Nc1cccc(C(=O)O)c1 | inactive: -0.499%
58 | Cc1ccc(-c2nnc(Nc3ccc(O)cc3)c3ccccc23)cc1S(=O)(=O)NC(C)(C)CO | inconclusive: -30.3%
59 | COc1c(N2CCN(C(=S)NC3CC4CCC3C4)C(C)C2)c(F)cc2c(=O)c(C(=O)O)cn(C3CC3)c12 (centres undefined) | inconclusive: -37.7%
60 | CCCCCC(=O)NC(=S)NC1C2CC3CC(C2)CC1C3 (centres undefined) | inconclusive: -30%
61 | O=S1(=O)N=C(SCCO)c2ccccc21 | inconclusive: -33.5%
62 | Cc1cccc(Oc2ncnc3onc(C)c23)c1C | inconclusive: -32.3%
63 | CC(C)C(=O)N1c2ncnn2C2(CCCCC2)[C@@H]2CCCC[C@@H]21 | inconclusive: -36.7%
64 | Cc1cc(C)n(C(=O)c2ccc(S(=O)(=O)NCC3CCCO3)cc2)n1 (centres undefined) | inconclusive: -32.6%
65 | CCOc1ccccc1OCCN1CCCC1 | inconclusive: -30.5%
66 | CC(C)OC(=O)C1CC=CCC1C(=O)Nc1ccc(Cl)cc1 (centres undefined) | inconclusive: -32.4%
67 | COC(=O)c1[nH]c2ccc(F)cc2c1NS(=O)(=O)c1ccc(F)c(C)c1 | inactive: -9.58%
68 | O=C(NNC(=O)c1cc2cc3ccccc3nc2s1)c1cccc(Cl)c1 | inactive: -11.8%
69 | COc1ccccc1CNC(=O)c1ccc2nc(N3CCCCC3)sc2c1 | inconclusive: -34.5%

Row | Structure (SMILES) | activity change, negative = inhibition
70 | CNC(=S)N/N=C(\C)c1ccc(Cl)s1 | inactive: -13.7%
71 | CCOC(=O)c1cnc(-n2nc(C)cc2C)nc1NNc1ncc(-c2ccccc2)cn1 | inconclusive: -30.9%
72 | CC1CCN(C(=O)c2ccc(S(=O)(=O)NCc3ccco3)cc2)CC1 | inconclusive: -30.8%
73 | CCC(=O)Nc1ccccc1-c1nc2ccccc2n(CC(=O)c2ccc(Cl)cc2)c1=O | inconclusive: -30.1%
74 | CCCCN1C(=O)C(CC(=O)NCc2cccs2)CC(C(=O)N(C)C)=C1C (centres undefined) | active: -53.4%
75 | CCc1ccccc1OCC(=O)Nc1cccc(S(=O)(=O)NC2=NCCCCC2)c1 | inconclusive: -40.5%
76 | CCC(=O)NC(=S)Nc1ccc(S(=O)(=O)N2CCN(C)CC2)cc1 | inconclusive: -32.8%
77 | CCOc1ccccc1CNCc1cccn1-c1nnc(N2CCN(c3ccccc3)CC2)s1 | inactive: 10.8%
78 | O=C(Nc1ccc(Cl)cc1)c1nc[nH]c1C(=O)Nc1ccccc1F | inactive: 12%
79 | Cc1cccc(NC(=O)C2CCCN2C(=O)Oc2ccccc2)c1C (centres undefined) | inconclusive: -31%
80 | Clc1ccc(CSc2nnc(-c3ccncc3)s2)cc1 | inactive: 36.8%
81 | Cc1ccc(C(=O)n2ncn(C)c2=S)cc1 | inconclusive: -39.4%
82 | CCCCC1=CC2=CC(=O)C(C)(OC(=O)CC)C(=O)C2=CN1CCc1ccc(Br)cc1 (centres undefined) | inactive: -10.1%
83 | CCN(CC)CCCNC(=O)c1ccc2c3n(nc2c1)-c1ccc(Cl)cc1CO3 | inconclusive: -30.9%
84 | CCC1CN(C(=O)N2CCC(C(=O)NCc3cccc(OC)c3OC)CC2)c2cc(C)ccc2O1 (centres undefined) | inconclusive: -42.2%
85 | Cc1nn(-c2cc(Cl)ccc2N)c(=O)c2ccccc12 | inconclusive: -36.1%
86 | COc1ccc(CN2C(=O)C(CC(=O)NC3CC3)CC(C(=O)N(C)C)=C2C)cc1 (centres undefined) | inconclusive: -47.1%
87 | Cc1csc2nc(SCC(=O)Nc3ccccc3F)[nH]c(=O)c12 | inconclusive: -38.2%
88 | COc1ccc(C(CNC(=O)c2cccc(NS(=O)(=O)c3ccccc3)c2)N(C)C)cc1 (centres undefined) | inactive: 10.1%
89 | Cc1nc2sc(C#N)c(N)c2c2c1CCCC2 | inactive: 6.17%

In a second layout: six of the compounds above
Row	Structure (SMILES)	activity change, negative = inhibition
74	CCCCN1C(=O)C(CC(=O)NCc2cccs2)CC(C(=O)N(C)C)=C1C (centres undefined)	active: -53.4%
75	CCc1ccccc1OCC(=O)Nc1cccc(S(=O)(=O)NC2=NCCCCC2)c1	inconclusive: -40.5%
78	O=C(Nc1ccc(Cl)cc1)c1nc[nH]c1C(=O)Nc1ccccc1F	inactive: 12%
79	Cc1cccc(NC(=O)C2CCCN2C(=O)Oc2ccccc2)c1C (centres undefined)	inconclusive: -31%
83	CCN(CC)CCCNC(=O)c1ccc2c3n(nc2c1)-c1ccc(Cl)cc1CO3	inconclusive: -30.9%
89	Cc1nc2sc(C#N)c(N)c2c2c1CCCC2	inactive: 6.17%
